Measured values as given in the supplement of paper PMC12819154, “High-throughput peptide-centric local stability assay extends protein–ligand identification to membrane proteins, tissues and bacteria” (Nature Structural & Molecular Biology, 2025).
This is one part of the list. Small differences around the control level are noise.

Amino acid sequences for entries named in this document (tags omitted). A change or cut given only in a name is not applied to a line headed by its entry.
UniProt Q7LDG7: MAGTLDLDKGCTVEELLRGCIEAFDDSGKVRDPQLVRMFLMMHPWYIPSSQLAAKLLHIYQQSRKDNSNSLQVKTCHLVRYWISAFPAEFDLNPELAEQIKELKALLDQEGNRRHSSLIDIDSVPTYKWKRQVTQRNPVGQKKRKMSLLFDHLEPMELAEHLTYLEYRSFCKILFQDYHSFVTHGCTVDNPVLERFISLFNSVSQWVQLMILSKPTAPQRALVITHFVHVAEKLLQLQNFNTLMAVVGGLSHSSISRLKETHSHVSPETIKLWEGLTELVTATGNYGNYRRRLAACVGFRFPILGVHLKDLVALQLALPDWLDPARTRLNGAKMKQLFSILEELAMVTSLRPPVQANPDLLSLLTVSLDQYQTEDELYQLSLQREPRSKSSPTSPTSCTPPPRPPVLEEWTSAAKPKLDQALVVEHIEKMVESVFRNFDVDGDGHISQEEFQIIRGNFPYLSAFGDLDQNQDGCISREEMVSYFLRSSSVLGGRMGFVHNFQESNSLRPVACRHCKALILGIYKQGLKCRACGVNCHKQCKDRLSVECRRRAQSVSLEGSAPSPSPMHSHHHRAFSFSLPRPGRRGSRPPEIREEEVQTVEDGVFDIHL
UniProt Q7Z412: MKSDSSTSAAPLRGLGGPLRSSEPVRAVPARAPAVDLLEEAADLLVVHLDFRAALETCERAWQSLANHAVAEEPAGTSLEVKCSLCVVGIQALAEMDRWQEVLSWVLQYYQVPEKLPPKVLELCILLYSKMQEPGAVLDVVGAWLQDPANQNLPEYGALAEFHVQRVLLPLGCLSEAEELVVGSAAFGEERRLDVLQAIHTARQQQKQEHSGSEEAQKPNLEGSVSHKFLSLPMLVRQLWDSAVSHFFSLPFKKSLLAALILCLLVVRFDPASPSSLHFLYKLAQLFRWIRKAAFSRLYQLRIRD
UniProt Q6ZU65, whole entry: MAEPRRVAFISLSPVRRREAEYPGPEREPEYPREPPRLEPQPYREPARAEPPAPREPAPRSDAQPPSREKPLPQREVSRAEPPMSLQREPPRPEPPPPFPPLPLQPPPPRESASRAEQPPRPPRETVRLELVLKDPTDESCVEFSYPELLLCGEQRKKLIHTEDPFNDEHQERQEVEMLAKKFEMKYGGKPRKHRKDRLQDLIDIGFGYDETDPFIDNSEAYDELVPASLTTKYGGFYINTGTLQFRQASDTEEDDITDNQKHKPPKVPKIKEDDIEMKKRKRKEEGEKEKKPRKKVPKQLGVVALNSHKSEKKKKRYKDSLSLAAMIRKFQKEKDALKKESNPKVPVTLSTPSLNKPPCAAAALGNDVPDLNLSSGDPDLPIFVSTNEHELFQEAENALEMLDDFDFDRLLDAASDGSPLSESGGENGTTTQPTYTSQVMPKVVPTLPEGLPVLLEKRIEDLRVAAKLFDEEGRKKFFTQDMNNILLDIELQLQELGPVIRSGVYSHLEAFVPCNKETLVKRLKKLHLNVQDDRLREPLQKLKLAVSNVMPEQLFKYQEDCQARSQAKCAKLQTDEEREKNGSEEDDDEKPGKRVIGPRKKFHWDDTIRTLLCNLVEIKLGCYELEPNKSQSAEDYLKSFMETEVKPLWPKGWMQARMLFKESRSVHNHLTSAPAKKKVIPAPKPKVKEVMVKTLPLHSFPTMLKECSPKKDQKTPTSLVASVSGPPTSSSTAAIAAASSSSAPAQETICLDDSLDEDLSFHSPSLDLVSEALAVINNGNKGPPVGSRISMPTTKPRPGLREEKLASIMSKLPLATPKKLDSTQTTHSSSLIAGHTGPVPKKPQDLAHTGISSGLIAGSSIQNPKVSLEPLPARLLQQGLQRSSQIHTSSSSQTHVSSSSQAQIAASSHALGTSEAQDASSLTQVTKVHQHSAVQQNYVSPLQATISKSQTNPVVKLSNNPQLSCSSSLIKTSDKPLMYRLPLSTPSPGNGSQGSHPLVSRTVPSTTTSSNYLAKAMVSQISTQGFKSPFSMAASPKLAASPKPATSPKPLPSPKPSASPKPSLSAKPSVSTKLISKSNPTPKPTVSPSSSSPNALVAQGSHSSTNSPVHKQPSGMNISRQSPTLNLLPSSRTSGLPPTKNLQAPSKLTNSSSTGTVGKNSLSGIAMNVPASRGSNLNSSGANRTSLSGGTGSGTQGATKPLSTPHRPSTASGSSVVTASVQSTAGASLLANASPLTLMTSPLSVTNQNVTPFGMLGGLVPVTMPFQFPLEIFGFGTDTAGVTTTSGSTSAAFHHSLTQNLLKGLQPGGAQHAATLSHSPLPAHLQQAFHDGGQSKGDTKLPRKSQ
UniProt Q86V97: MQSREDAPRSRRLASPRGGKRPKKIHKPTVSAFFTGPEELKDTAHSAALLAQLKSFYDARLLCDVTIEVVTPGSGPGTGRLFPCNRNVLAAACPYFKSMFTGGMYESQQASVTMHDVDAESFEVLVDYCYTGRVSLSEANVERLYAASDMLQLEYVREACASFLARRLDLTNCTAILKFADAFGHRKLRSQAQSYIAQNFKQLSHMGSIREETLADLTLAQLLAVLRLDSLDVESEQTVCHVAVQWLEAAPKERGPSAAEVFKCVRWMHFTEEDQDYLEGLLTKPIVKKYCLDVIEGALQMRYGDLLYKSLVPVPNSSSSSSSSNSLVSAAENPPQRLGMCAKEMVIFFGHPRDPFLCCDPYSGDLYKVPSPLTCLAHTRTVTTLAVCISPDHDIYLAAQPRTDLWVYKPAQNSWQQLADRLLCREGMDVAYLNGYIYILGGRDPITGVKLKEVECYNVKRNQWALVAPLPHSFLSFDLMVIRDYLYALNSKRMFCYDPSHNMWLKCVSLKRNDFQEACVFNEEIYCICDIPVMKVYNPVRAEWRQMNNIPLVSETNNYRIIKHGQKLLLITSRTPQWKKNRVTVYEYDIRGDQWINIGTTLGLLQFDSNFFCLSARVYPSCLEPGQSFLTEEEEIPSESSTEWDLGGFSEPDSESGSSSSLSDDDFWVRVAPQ
UniProt Q6ZUJ8: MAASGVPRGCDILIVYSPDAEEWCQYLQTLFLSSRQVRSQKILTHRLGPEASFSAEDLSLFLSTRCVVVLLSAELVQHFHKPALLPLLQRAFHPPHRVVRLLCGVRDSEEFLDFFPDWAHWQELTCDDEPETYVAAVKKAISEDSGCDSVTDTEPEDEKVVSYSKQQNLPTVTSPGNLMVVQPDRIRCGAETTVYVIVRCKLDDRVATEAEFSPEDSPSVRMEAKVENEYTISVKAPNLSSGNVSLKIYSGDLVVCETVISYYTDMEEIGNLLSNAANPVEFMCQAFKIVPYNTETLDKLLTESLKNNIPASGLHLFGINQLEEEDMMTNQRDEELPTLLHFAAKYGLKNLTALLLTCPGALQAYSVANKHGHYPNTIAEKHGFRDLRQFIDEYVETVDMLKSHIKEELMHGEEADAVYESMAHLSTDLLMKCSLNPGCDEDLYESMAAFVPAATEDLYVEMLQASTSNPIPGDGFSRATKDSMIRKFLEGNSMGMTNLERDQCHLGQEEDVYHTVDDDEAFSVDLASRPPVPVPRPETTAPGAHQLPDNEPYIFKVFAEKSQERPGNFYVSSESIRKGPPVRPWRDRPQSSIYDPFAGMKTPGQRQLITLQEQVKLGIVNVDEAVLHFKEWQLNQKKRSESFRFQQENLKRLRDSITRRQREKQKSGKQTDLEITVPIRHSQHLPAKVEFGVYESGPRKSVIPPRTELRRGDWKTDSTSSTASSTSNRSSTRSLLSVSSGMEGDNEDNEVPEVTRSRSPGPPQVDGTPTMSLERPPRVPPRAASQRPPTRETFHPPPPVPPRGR
UniProt Q86SX3: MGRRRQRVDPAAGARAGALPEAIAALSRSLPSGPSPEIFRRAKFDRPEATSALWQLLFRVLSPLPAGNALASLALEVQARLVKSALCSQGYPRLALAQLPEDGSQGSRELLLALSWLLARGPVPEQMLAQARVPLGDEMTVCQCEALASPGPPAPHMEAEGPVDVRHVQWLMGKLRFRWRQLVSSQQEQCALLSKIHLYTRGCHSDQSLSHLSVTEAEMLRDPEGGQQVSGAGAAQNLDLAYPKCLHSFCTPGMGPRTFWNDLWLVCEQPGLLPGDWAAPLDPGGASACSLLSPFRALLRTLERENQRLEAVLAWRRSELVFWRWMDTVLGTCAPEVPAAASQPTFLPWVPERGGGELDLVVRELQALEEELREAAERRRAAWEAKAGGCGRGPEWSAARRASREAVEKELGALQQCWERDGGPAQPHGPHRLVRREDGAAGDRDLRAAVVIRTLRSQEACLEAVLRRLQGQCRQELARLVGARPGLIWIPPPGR
UniProt Q6ZWJ1: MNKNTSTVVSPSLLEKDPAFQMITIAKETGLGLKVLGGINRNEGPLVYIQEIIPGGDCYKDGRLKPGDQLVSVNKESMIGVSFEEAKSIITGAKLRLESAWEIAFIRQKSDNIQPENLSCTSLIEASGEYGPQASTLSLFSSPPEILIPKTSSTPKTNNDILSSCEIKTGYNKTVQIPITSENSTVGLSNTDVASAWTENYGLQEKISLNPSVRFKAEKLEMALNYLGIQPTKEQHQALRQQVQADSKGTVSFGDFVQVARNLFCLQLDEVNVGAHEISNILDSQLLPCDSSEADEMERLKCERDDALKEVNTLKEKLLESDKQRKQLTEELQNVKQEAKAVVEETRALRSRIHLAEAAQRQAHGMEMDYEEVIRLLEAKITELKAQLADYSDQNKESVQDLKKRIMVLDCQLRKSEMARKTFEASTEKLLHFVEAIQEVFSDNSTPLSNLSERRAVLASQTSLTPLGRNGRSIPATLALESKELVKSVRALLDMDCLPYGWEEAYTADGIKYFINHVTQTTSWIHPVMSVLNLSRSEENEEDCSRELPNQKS
UniProt Q7Z4I7: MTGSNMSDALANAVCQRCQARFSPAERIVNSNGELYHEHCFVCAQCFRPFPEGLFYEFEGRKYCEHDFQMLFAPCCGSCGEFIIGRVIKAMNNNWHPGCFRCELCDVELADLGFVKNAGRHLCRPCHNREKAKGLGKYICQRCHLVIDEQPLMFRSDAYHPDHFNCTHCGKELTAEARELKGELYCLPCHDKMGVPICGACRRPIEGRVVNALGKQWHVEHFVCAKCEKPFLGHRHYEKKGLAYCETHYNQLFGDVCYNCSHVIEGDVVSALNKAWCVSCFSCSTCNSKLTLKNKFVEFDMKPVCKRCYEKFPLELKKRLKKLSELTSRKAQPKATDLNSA
UniProt Q7L5N7: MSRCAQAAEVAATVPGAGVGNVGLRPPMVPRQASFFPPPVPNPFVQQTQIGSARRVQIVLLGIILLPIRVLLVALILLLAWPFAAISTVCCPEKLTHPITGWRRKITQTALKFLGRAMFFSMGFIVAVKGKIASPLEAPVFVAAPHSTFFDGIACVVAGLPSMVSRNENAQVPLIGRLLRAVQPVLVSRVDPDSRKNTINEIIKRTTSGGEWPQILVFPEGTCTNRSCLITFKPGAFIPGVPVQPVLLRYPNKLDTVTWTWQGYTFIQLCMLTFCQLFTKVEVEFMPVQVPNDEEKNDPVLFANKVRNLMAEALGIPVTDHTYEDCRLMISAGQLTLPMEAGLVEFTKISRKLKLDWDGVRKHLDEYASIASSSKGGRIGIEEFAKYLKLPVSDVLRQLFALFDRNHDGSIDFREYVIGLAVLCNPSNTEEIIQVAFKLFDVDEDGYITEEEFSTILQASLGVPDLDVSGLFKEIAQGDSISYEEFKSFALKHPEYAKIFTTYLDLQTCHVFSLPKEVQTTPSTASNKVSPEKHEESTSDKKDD
UniProt Q7L592: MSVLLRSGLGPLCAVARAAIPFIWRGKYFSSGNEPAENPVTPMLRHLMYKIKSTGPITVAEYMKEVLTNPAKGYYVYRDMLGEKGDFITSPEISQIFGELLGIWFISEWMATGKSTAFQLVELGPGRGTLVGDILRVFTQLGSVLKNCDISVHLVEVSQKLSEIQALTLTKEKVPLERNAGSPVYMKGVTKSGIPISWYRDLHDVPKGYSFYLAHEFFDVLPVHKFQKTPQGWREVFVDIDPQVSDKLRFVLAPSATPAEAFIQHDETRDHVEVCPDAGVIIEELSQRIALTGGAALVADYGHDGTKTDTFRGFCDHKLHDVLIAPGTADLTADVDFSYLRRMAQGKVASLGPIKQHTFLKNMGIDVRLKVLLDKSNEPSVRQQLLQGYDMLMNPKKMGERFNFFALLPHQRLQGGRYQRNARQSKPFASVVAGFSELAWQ
UniProt Q86T20: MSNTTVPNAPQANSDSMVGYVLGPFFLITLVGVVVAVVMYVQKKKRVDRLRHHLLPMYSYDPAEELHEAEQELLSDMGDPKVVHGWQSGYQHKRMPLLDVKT
UniProt Q70UQ0: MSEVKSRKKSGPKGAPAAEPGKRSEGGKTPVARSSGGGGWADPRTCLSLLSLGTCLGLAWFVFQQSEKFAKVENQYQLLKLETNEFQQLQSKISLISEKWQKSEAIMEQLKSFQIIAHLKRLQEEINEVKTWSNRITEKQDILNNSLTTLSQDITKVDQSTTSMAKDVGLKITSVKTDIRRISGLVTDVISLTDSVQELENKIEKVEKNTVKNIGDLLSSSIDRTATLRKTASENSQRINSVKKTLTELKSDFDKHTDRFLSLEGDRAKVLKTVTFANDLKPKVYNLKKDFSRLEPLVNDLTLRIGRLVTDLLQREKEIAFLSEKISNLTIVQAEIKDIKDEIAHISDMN

Each target was assayed with CN[C@@H]1C[C@H]2O[C@@](C)([C@@H]1OC)n1c3ccccc3c3c4c(c5c6ccccc6n2c5c31)C(=O)NC4 [staurosporine] (assay: log2 fold change of tryptic peptide abundance, ligand vs vehicle (limited proteolysis) (log2 ratio); higher = more trypsin-susceptible (destabilized)). Conditions: ligand concentration: 20 uM; sample: K562 cleared lysate; digestion: 4 min, 22 C (HT-PELSA RT4min, Orbitrap Astral).

Row | Target | log2 fold change
1 | FAM160B2 (peptide sequence: QNVSPAPEGQV, peptide start residue: 733) (UniProt Q86V87) | 0.4
2 | CEP128 (peptide sequence: ETLLHQVEELR, peptide start residue: 303) (UniProt Q6ZU80) | 0.083
3 | C5orf24 (peptide sequence: VSPGRPPGSIK, peptide start residue: 136) (UniProt Q7Z6I8) | -0.326
4 | UniProt Q7Z7F0 (peptide sequence: GKGSGCIEPASGR, peptide start residue: 275) | 0.331
5 | SGMS1 (peptide sequence: IKPNGMPNGYRK, peptide start residue: 102) (UniProt Q86VZ5) | 0.107
6 | RASGRP2 (peptide sequence: FPILGVHLK, peptide start residue: 301) (UniProt Q7LDG7) | 0.532
7 | UniProt Q86V81 (peptide sequence: SLGTADVHFERK, peptide start residue: 145) | 0.298
8 | PEX26 (peptide sequence: SDSSTSAAPLR, peptide start residue: 3) (UniProt Q7Z412) | 0.302
9 | DET1 (peptide sequence: MDHHVSTIKPR, peptide start residue: 1) (UniProt Q7L5Y6) | 1.02
10 | UBN2 (peptide sequence: TLLCNLVEIK, peptide start residue: 611) (UniProt Q6ZU65) | 0.213
11 | PARS2 (peptide sequence: QLPFLLYQVTRK, peptide start residue: 176) (UniProt Q7L3T8) | -0.639
12 | COMMD7 (peptide sequence: SLLLVPNGALKK, peptide start residue: 74) (UniProt Q86VX2) | 0.498
13 | KBTBD6 (peptide sequence: YGDLLYK, peptide start residue: 303) (UniProt Q86V97) | 0.0927
14 | CMC1 (peptide sequence: CSEQVQDFTK, peptide start residue: 31) (UniProt Q7Z7K0) | 0.461
15 | PIK3AP1 (peptide sequence: LGIVNVDEAVLHFK, peptide start residue: 617) (UniProt Q6ZUJ8) | -0.464
16 | UniProt Q7Z392 (peptide sequence: FIPTSIFVKPQGR, peptide start residue: 1111) | 0.0683
17 | UniProt Q86SX3 (peptide sequence: ELQALEEELR, peptide start residue: 364) | -0.431
18 | STXBP4 (peptide sequence: RIMVLDCQLR, peptide start residue: 405) (UniProt Q6ZWJ1) | 0.896
19 | UniProt Q7Z4I7 (peptide sequence: HLCRPCHNR, peptide start residue: 116) | 0.842

Row | Target | log2 fold change
20 | LPCAT2 (peptide sequence: AVQPVLVSR, peptide start residue: 181) (UniProt Q7L5N7) | 0.184
21 | MRPL21 (peptide sequence: VLLVGADNFTLLGKPLLGK, peptide start residue: 133) (UniProt Q7Z2W9) | -0.471
22 | C11orf74 (peptide sequence: FSPAEIENIK, peptide start residue: 192) (UniProt Q86VG3) | 0.105
23 | DTX2 (peptide sequence: TASVFGTHQAFAPYNKPSLSGAR, peptide start residue: 234) (UniProt Q86UW9) | -0.141
24 | UniProt Q86T90 (peptide sequence: LTMSLSELGAAR, peptide start residue: 176) | 0.0667
25 | RPAIN (peptide sequence: LVGSPPWK, peptide start residue: 15) (UniProt Q86UA6) | -0.0938
26 | TECPR1 (peptide sequence: NATGNSASGLGAGR, peptide start residue: 439) (UniProt Q7Z6L1) | -0.00555
27 | VPS13C (peptide sequence: QVSSIPIISGGTK, peptide start residue: 846) (UniProt Q709C8) | 0.213
28 | SSH2 (peptide sequence: KNSIHELLLER, peptide start residue: 782) (UniProt Q76I76) | -0.282
29 | SETD3 (peptide sequence: NLEEEAGVQDALNIR, peptide start residue: 525) (UniProt Q86TU7) | -0.201
30 | RSRC2 (peptide sequence: SQSAEIWEKLNFGNKDQNVK, peptide start residue: 348) (UniProt Q7L4I2) | -0.777
31 | UniProt Q7L592 (peptide sequence: GYSFYLAHEFFDVLPVHK, peptide start residue: 208) | 0.455
32 | RABEPK (peptide sequence: YEHASFIPSCTPDR, peptide start residue: 87) (UniProt Q7Z6M1) | -0.525
33 | FAM122B (peptide sequence: RIDFTPVSPAPSPTR, peptide start residue: 108) (UniProt Q7Z309) | 0.256
34 | SMIM29 (peptide sequence: MPLLDVKT, peptide start residue: 95) (UniProt Q86T20) | 0.0481
35 | UniProt Q70UQ0 (peptide sequence: EIAFLSEK, peptide start residue: 318) | -0.119
36 | DCXR (peptide sequence: AVIQVSQIVAR, peptide start residue: 110) (UniProt Q7Z4W1) | 0.554
37 | UniProt Q86U38 (peptide sequence: CGVHVLQSALLQLPR, peptide start residue: 141) | 0.216

Reprinted at random: 2 records from the list
Row | Target | log2 fold change
36 | DCXR (peptide sequence: AVIQVSQIVAR, peptide start residue: 110) (UniProt Q7Z4W1) | 0.554
34 | SMIM29 (peptide sequence: MPLLDVKT, peptide start residue: 95) (UniProt Q86T20) | 0.0481
